Assay results reported in PubChem BioAssay AID504434 (National Center for Advancing Translational Sciences (NCATS), 2011).
The shares of active, inactive and inconclusive entries below differ from those in the screen. Potencies of inconclusive entries are doubtful fits and often do not repeat. Calls of active or inactive are those of the source. Calls follow the shape of the dose curve; as a rule, active = well fitted curve in the direction sought with a large enough effect; inconclusive = small, poorly fitted or top-dose-only effect, or effect the other way, or another doubt; inactive = no such curve, though single readings can be large or run the other way.

Experiment: Secondary Assay for lipid storage modulators: AML12 cell LDSA assay for probe SAR
Details: AML12 lipid droplet accumulation, BODIPY 493/503 imaging, oleate; series mostly up to 46.1 µM
Method in brief: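 Lipid-droplet accumulation in oleic acid (400 uM)-loaded AML12 cells was read as BODIPY 493/503 fluorescence, with CMTPX staining counting cells, after 18-24 h at 24 degree celsius with compound. Activity normalised to 20 uM Triacsin C (100% inhibition).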
With CCn1c(C(=O)NCc2ccc(OC)c(OC)c2)cc2sccc21 the Potency was inconclusive: 0.0004 µM. In the case of Cc1ccc(-c2cnc(SCC(=O)Nc3nccs3)n2Cc2ccco2)cc1, the Potency is reported as “inactive”. In the case of COc1ccc(-c2cnc(SCC(=O)Nc3nccs3)n2Cc2ccccc2)cc1, the Potency is reported as inconclusive: 0.112 µM [falling, full curve, poor fit]. For O=C(NC1CCCc2c1cnn2-c1ccc(F)cc1F)c1cccc(=O)[nH]1 (centres undefined), the Potency was “inactive”. In the case of O=C(NC1CCCc2c1cnn2-c1ccc(O)cc1)c1ccccn1 (centres undefined), the Potency is reported as inconclusive: 31.5 µM [falling, partial curve, poor fit]. For CCOC(=O)C1CCN(C(=O)C(C)(C)NC(=O)Nc2ccc(Cl)cc2Cl)CC1, the Potency was inconclusive: 6.28 µM [falling, partial curve, poor fit]. With Cc1ccc(-n2ncc3c2CCCC3NC(=O)c2c(F)cccc2F)cc1C (centres undefined) the Potency was inconclusive: 0.112 µM [falling, full curve, poor fit]. In the case of CCOC(=O)C1CCN(C(=O)C(C)(C)NC(=O)Nc2ccc(Oc3ccccc3)cc2)CC1, the Potency is reported as inconclusive: 0.001 µM [falling, full curve, poor fit]. For Cc1cc(NC(=O)Nc2ccc(N(C)C)cc2)c2cc(F)cc(F)c2n1, the Potency was inconclusive: 14.1 µM [activator, partial curve]. With COc1ccc(-c2csc(NC(=O)Cc3cccs3)n2)cc1 the Potency was inconclusive: 6.28 µM [activator, full curve, poor fit]. With O=C(NC1CCCc2c1cnn2-c1ccc(F)cc1F)c1ccsc1 (centres undefined) the Potency was inconclusive: 11.2 µM [activator, single point]. For O=C(NC1CCCc2c1cnn2-c1ccc(F)cc1F)c1cnsn1 (centres undefined), the Potency was “inactive”. In the case of COc1ccc(-c2csc(NC(=O)CSc3nnc(Nc4ccccc4)s3)n2)cc1, the Potency is reported as inconclusive: 0.0056 µM [falling, full curve, poor fit]. For COc1ccc(Cl)cc1NC(=O)N1CCN(c2ccccn2)CC1, the Potency was inconclusive: 35.3 µM [falling, single point]. For Cc1csc(NC(=O)CSc2ncc(-c3ccccc3)n2Cc2ccco2)n1, the Potency was inconclusive: 3.97 µM [falling, partial curve, poor fit]. In the case of CC(C)(C)OC(=O)NCCOCCOCCOc1ccc(-n2ncc3c2CCCC3NC(=O)c2ccccn2)cc1 (centres undefined), the Potency is reported as “inactive”. In the case of CCn1c(-c2ccc(C)cc2)cnc1SCC(=O)Nc1nc(C)cs1, the Potency is reported as “inactive”. In the case of Cc1cccc(Nc2nnc(SCC(=O)Nc3nc(-c4ccc(F)cc4)cs3)s2)c1, the Potency is reported as inconclusive: 35.3 µM [activator, single point]. In the case of O=C(NC1CCCCC1)NC1(C(=O)N2CCCC2)CCCCC1, the Potency is reported as inconclusive: 12.5 µM [falling, full curve, poor fit]. In the case of CCOC(=O)C1CCN(C(=O)C(C)(C)NC(=O)Nc2ccc(CN3CCOCC3)cc2)CC1, the Potency is reported as inconclusive: 35.3 µM [falling, partial curve, poor fit]. For Cc1cccc(-c2ccc3ncnc(NCc4cccc(F)c4)c3c2)c1, the Potency was “inactive”. In the case of CCOC(=O)C1CCN(C(=O)C(C)(C)NC(=O)Nc2cccc(-c3csc(C)n3)c2)CC1, the Potency is reported as “inactive”. In the case of O=C(NC1CCCc2c1cnn2-c1ccc(F)cc1F)c1ccc(F)cc1 (centres undefined), the Potency is reported as inconclusive: 0.0007 µM [activator, full curve]. In the case of Cc1ccc(-c2nc(NC(=O)Cc3cccs3)sc2C)cc1, the Potency is reported as inconclusive: 35.3 µM [activator, partial curve, poor fit]. In the case of CC1=C(C(=O)NC2CCCc3c2cnn3-c2ccc(F)cc2F)OCCO1 (centres undefined), the Potency is reported as “inactive”. In the case of CCOc1ccc(CCNC(=O)c2cc3sccc3n2C(C)C)cc1OCC, the Potency is reported as inconclusive: 0.0791 µM [falling, full curve, poor fit]. For CCOC(=O)C1CCN(C(=O)C(C)(C)NC(=O)Nc2ccc(N)cc2)CC1, the Potency was “inactive”. With CCOC(=O)C1CCN(C(=O)C(C)(C)NC(=O)Nc2ccc(C(F)(F)F)cc2Cl)CC1 the Potency was inconclusive: 0.0499 µM [falling, full curve, poor fit]. For COc1ccc(-c2cnc(SCC(=O)Nc3nc(C)cs3)n2-c2ccccc2)cc1, the Potency was “inactive”.
